Results as given in PMC5962693.
Results are given in words; binding and its absence hold for the method and conditions named. In cells and extracts the contact can be indirect. A yes stands for co-enrichment or nearness to the bait. Other partners may have been found.

Molecular target: GST-CT622 (C. trachomatis D/UW-3/CX) (UniProt O84627)
Assay: affinity purification with mass spectrometry; 30 μg purified GST or GST-CT622 with glutathione sepharose 4B beads, incubated 90 min at 4°C with precleaned, sonicated lysate of elementary bodies (NP40 lysis buffer); five washes; eluted with urea buffer; done twice; only the target purified

B1: CT635 (protein, UniProt O84640 1-144)
chain: MKNNSAQKIIDSIKQILSIYKIDFEPSFGATLTDDNDLDYQMLIEKTQEKIQELDKRSQEILQQTGMTREQMEVFANNPDNFSPEEWRALENIRSSCNEYKKETEELIKEVTNDIGHSSHKSPTPKKTKSSSQKKSKKKNWIPL
With B1 the binding was “binds”.
